Test results as given in US20110027352A1, “COMPOUNDS FOR USE IN THE TREATMENT OF NEUROPATHIC PAIN” (priority 2008, published 2011).
Entries after “also recorded” stand apart in the source; their conditions may differ.

Key:
[1] = test system: mechanical allodynia of the neuropathic (“Cuff”) mice; experiment: Sciatic nerve cuff murine model of neuropathic pain, von Frey filament test in neuropathic (Cuff) mice; assay type: in vivo, C57BL/6J mice; conditions: for Mechanical allodynia of the right (neuropathic) foot after chronic treatment: injection twice a day
[2] = test system: nociceptive sensitivity of the mice of the control (“Sham”) group; experiment: von Frey filament test in control (Sham) mice operated without cuff; assay type: in vivo, C57BL/6J mice; conditions: chronic treatment (14-21 days); doses and modes as in examples 2, 7, 9 to 14 and 20 (formoterol 0.5 mg/kg, terbutalin 5 mg/kg)

COc1ccc(CC(C)NCC(O)c2ccc(O)c(NC=O)c2)cc1 (centres unmarked) [formoterol]
Mechanical allodynia of the right (neuropathic) foot after chronic treatment ([1]; 0.005 mg/kg): completely suppress the mechanical allodynia
Mechanical allodynia of the right (neuropathic) foot after chronic treatment ([1]; 0.05 mg/kg): completely suppress the mechanical allodynia
Allodynia in neuropathic (Cuff) animals after chronic treatment, recapitulation (FIG. 25) ([1]; chronic treatment (14-21 days), doses and modes as in examples 7, 9 to 14 and 20 (formoterol 0.5 mg/kg, terbutalin 5 mg/kg)): relieve this allodynia; also recorded: causes the neuropathic pain, for example the neuropathic allodynia, to completely disappear
Effect on neuropathic allodynia acutely after the first injection, summary statement ([1]; first injection of the agonist, doses as in examples 7, 9, 11 and 15): not observed acutely after the first injection
Sensitivity of control (Sham) animals under chronic treatment, recapitulation (FIG. 26) [2]: do not affect the control animals; also recorded: does not aspecifically affect the sensitivity of the control animals
